The target of test [1] is T1, 97 kDa β subunit of human RPTPκ (MCP7) (human) (UniProt Q15262).
T1 sequence: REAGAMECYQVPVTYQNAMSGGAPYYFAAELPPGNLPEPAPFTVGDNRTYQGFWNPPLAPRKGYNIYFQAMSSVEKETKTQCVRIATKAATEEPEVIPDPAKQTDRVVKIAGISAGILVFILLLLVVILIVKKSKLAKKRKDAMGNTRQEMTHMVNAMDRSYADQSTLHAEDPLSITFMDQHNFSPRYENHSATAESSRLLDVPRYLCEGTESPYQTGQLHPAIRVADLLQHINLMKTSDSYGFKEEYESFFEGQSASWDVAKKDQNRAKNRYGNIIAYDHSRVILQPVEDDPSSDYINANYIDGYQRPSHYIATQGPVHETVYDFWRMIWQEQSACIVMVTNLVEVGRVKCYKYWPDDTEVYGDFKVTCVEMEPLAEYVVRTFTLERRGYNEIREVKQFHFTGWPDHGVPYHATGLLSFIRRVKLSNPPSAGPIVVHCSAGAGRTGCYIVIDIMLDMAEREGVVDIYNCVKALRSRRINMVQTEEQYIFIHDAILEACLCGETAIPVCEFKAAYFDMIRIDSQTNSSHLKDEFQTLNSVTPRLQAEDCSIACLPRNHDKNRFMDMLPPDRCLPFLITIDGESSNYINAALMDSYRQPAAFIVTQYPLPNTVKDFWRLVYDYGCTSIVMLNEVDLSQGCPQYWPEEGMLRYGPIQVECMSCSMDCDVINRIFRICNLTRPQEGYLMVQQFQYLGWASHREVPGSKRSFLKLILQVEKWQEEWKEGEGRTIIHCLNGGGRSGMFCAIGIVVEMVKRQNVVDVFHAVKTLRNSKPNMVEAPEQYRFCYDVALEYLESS
In words: co-immunoprecipitation of the 97 kDa band with Ab 116 from MCP7-transfected 293 cells.

Test [2] has as its target truncated, catalytically inactive deletion mutant of murine RPTPκ lacking most of the intracellular (PTPase) domain (mouse) (UniProt P35822). Kind of test: aggregation of transiently transfected S2 cells, Coulter counting.
Test [3] has as its target T2, 100 kDa C-terminal cleavage product of murine RPTPκ (mouse) (UniProt P35822).
T2 sequence: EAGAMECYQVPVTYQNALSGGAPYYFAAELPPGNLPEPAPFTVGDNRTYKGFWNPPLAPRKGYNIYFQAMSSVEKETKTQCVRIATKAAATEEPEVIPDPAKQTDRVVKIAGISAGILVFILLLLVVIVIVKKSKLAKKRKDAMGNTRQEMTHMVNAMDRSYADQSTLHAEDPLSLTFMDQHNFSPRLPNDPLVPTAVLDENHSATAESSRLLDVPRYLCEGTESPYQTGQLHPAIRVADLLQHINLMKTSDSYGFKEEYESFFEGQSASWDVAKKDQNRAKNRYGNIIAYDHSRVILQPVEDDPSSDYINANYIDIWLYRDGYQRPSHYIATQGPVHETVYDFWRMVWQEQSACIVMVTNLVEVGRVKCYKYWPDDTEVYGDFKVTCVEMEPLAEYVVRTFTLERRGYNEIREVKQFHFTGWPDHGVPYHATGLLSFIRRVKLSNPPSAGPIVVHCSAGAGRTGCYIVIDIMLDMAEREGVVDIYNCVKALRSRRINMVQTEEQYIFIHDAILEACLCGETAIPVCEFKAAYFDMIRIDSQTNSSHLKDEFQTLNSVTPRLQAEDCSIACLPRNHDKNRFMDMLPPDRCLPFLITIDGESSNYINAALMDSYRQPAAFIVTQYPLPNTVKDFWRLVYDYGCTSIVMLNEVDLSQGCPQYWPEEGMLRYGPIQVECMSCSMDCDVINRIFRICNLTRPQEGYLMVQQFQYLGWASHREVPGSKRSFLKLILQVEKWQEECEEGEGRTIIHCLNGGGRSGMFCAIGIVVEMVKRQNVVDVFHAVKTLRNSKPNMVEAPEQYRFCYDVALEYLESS
Kind of test: co-immunoprecipitation: precipitated with antiserum 116, blotted with antiserum 122.

No constants are given. Whether binding was seen depends on the method and setting. For part of these data: In cells and extracts the contact can be indirect. Some binding calls cover weakened binding; strength is not graded here.

B1: 116 kDa α subunit of human RPTPκ (MCP7) (receptor)
chain: PWPLLGSAQGQFSAGGCTFDDGPGACDYHQDLYDDFEWVHVSAQEPHYLPPEMPQGSYMIVDSSDHDPGEKARLQLPTMKENDTHCIDFSYLLYSQKGLNPGTLNILVRVNKGPLANPIWNVTGFTGRDWLRAELAVSTFWPNEYQVIFEAEVSGGRSGYIAIDDIQVLSYPCDKSPHFLRLGDVEVNAGQNATFQCIATGRDAVHNKLWLQRRNGEDIPVAQTKNINHRRFAASFRLQEVTKTDQDLYRCVTQSERGSGVSNFAQLIVREPPRPIAPPQLLGVGPTYLLIQLNANSIIGDGPIILKEVEYRMTSGSWTETHAVNAPTYKLWHLDPDTEYEIRVLLTRPGEGGTGLPGPPLITRTKCAEPMRTPKTLKIAEIQARRIAVDWESLGYNITRCHTFNVTICYHYFRGHNESKADCLDMDPKAPQHVVNHLPPYTNVSLKMILTNPEGRKESEETIIQTDEDVPGPVPVKSLQGTSFENKIFLNWKEPLDPNGIITQYEISYSSIRSFDPAVPVAGPPQTVSNLWNSTHHVFMHLHPGTTYQFFIRASTVKGFGPATAINVTTNISAPTLPDYEGVDASLNETATTITVLLRPAQAKGAPISAYQIVVEELHP
For B1, the binding result in test [1] is “binds”.

B2: truncated, catalytically inactive deletion mutant of murine RPTPκ lacking most of the intracellular (PTPase) domain (receptor)
chain: ALGQFSAGGCTFDDGPGACDYHQDLYDDFEWVHVSAQEPHYLPPEMPQGSYMVVDSSNHDPGEKARLQLPTMKENDTHCIDFSYLLYSQKGLNPGTLNILVRVNKGPLANPIWNVTGFTGRDWLRAELAVSTFWPNEYQVIFEAEVSGGRSGYIAIDDIQVLSYPCDKSPHFLRLGDVEVNAGQNATFQCIATGRDAVHNKLWLQRRNGEDIPVAQTKNINHRRFAASFRLQEVTKTDQDLYRCVTQSERGSGVSNFAQLIVREPPRPIAPPQLLGVGPTYLLIQLNANSIIGDGPIILKEVEYRMTSGSWTETHAVNAPTYKLWHLDPDTEYEIRVLLTRPGEGGTGLPGPPLITRTKCAEPMRTPKTLKIAEIQARRIAVDWESLGYNITRCHTFNVTICYHYFRGHNESRADCLDMDPKAPQHVVNHLPPYTNVSLKMILTNPEGRKESEETIIQTDEDVPGPVPVKSLQGTSFENKIFLNWKEPLEPNGIITQYEVSYSSIRSFDPAVPVAGPPQTVSNLWNSTHHVFMHLHPGTTYQFFIRASTVKGFGPATAINVTTNISAPSLPDYEGVDASLNETATTITVLLRPAQAKGAPISAYQIVVEQLHPHRTKREAGAMECYQVPVTYQNALSGGAPYYFAAELPPGNLPEPAPFTVGDNRTYKGFWNPPLAPRKGYNIYFQAMSSVEKETKTQCVRIATKAAATEEPEVIPDPAKQTDRVVKIAGISAGILVFILLLLVVIVIVKKSKLAKKRKDAMGNTRQEMTHMVNAMDRSYADQSTLHAEDPLSLTFMDQHNFSPRLPNDPLVPTAVLDENHSATAESSRLLDVPRYLCEGTESPYQTGQLHPAIRVADLLQHINLMKTSDSYGFKEEYESFFEGQSASWDVAKKDQNRAKNRYGNIIAYDHSRVILQPVEDDPSSDYINANYIDIWLYRDGYQRPSHYIATQGPVHETVYDFWRMVWQEQSACIVMVTNLVEVGRVKCYKYWPDDTEVYGDFKVTCVEMEPLAEYVVRTFTLERRGYNEIREVKQFHFTGWPDHGVPYHATGLLSFIR
As to B2, in test [2], the binding result is given as “binds”.

B3: 110 kDa N-terminal cleavage product of murine RPTPκ (receptor)
chain: ALGQFSAGGCTFDDGPGACDYHQDLYDDFEWVHVSAQEPHYLPPEMPQGSYMVVDSSNHDPGEKARLQLPTMKENDTHCIDFSYLLYSQKGLNPGTLNILVRVNKGPLANPIWNVTGFTGRDWLRAELAVSTFWPNEYQVIFEAEVSGGRSGYIAIDDIQVLSYPCDKSPHFLRLGDVEVNAGQNATFQCIATGRDAVHNKLWLQRRNGEDIPVAQTKNINHRRFAASFRLQEVTKTDQDLYRCVTQSERGSGVSNFAQLIVREPPRPIAPPQLLGVGPTYLLIQLNANSIIGDGPIILKEVEYRMTSGSWTETHAVNAPTYKLWHLDPDTEYEIRVLLTRPGEGGTGLPGPPLITRTKCAEPMRTPKTLKIAEIQARRIAVDWESLGYNITRCHTFNVTICYHYFRGHNESRADCLDMDPKAPQHVVNHLPPYTNVSLKMILTNPEGRKESEETIIQTDEDVPGPVPVKSLQGTSFENKIFLNWKEPLEPNGIITQYEVSYSSIRSFDPAVPVAGPPQTVSNLWNSTHHVFMHLHPGTTYQFFIRASTVKGFGPATAINVTTNISAPSLPDYEGVDASLNETATTITVLLRPAQAKGAPISAYQIVVEQLHPHRTKR
With B3, the binding result in test [3] is reported as “binds”.
